Results are given in words; binding and its absence hold for the method and conditions named. Binding seen in cells or lysates may run through a third protein. Some entries that bind do so weakly or less than the wild type.
Target: Toll-like receptor 4 (human (endogenous in THP-1)) (UniProt O00206)
Assay: co-IP; lysates of THP-1 cells differentiated with PMA for 24 hours and stimulated with LPS (100 ng/ml) or FFA (800 umol/L) for 24 hours; incubated with antibody against fgl2 or TLR4 at 4°C overnight, IP & CoIP kit; western blotting; rabbit IgG and mouse IgG as control antibodies

By UniProt entry, the sequences of proteins in these tests, tags left out. Residues count along the entry.
UniProt O00206, residues 24-839: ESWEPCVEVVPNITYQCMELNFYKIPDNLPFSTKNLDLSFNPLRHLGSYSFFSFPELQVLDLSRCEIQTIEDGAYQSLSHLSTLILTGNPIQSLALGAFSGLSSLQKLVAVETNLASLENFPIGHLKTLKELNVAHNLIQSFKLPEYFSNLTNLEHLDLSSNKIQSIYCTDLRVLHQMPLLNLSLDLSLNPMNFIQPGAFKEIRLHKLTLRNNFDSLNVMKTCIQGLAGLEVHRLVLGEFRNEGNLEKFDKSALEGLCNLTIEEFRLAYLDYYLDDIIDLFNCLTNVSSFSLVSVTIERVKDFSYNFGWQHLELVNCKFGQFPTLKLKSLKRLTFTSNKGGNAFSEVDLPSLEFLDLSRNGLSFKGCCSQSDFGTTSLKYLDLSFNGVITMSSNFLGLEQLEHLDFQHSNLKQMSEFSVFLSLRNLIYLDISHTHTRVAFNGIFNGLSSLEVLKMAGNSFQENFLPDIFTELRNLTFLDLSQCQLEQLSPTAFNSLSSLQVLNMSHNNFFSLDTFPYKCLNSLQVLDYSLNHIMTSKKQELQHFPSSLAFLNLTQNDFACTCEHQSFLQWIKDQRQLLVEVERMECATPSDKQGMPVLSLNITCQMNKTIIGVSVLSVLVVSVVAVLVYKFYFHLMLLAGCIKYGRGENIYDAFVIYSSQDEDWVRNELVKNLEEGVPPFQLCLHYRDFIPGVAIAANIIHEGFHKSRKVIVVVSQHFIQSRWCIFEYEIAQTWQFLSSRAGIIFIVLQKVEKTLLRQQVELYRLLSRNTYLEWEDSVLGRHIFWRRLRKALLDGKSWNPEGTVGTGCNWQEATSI
UniProt Q14314, residues 24-439: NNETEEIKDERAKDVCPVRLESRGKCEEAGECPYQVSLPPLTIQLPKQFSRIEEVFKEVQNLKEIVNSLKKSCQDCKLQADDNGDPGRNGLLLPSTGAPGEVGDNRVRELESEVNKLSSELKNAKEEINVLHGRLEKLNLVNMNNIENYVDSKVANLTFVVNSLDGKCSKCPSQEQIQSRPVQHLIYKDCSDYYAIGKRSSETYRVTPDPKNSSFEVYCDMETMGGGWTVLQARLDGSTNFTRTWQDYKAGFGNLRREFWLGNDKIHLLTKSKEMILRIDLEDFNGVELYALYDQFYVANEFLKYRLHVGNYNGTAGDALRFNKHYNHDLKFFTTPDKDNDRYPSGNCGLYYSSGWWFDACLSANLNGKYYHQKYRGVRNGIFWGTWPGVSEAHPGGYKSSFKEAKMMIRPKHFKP

binding: binds
Substance: Fibrinogen-like protein 2 (from UniProt Q14314 24-439)
